Measured values: PMC4558565

Legend:
[1] = molecular target: AKINβ2 (LexA-BD yeast two-hybrid fusion) (Arabidopsis thaliana); assay: two-hybrid; yeast strain L40; LexA-BD fusions (pBTM117) as baits, GAL4-AD-bZIP63 (pACTIIJ) as prey; lacZ reporter read with ONPG in cell extracts; auto-activation measured with empty pACTIIJ
[2] = molecular target: BD-bZIP63 with one of the C-terminal sites mutated to alanine (protoplast two-hybrid) (Arabidopsis thaliana) (UniProt B9DGI8); assay: two-hybrid; protoplast two-hybrid (P2H) in Arabidopsis leaf protoplasts; GAL4-AD and GAL4-BD fusions, GAL-UAS4::GUS reporter normalised to 35S::NAN; without and with co-transformation of AKIN10; 16 hr

- binding [1]: binds weakly
B1: bZIP63 (yeast two-hybrid fusion) (protein, UniProt B9DGI8 1-314)
chain: MEKVFSDEEISGNHHWSVNGMTSLNRSASEWAFNRFIQESSAAADDGESTTACGVSVSSPPNVPVDSEEYRAFLKSKLNLACAAVAMKRGTFIKPQDTSGRSDNGGANESEQASLASSKATPMMSSAITSGSELSGDEEEADGETNMNPTNVKRVKRMLSNRESARRSRRRKQAHLSELETQVSQLRVENSKLMKGLTDVTQTFNDASVENRVLKANIETLRAKVKMAEETVKRLTGFNPMFHNMPQIVSTVSLPSETSNSPDTTSSQVTTPEIISSGNKGKALIGCKMNRTASMRRVESLEHLQKRIRSVGDQ

- binding [2]: binds
B2: bZIP63 (protoplast two-hybrid fusion) (protein, UniProt B9DGI8 1-314)
chain: B1 chain

- binding [2]: binds
B3: bZIP11 (protoplast two-hybrid fusion) (protein, UniProt O65683 1-159)
chain: MESSSSGTTSSTIQTSSGSEESLMEQRKRKRMLSNRESARRSRMKKQKLLDDLTAQVNHLKKENTEIVTSVSITTQHYLTVEAENSVLRAQLDELNHRLQSLNDIIEFLDSSNNNNNNNMGMCSNPLVGLECDDFFVNQMNMSYIMNQPLMASSDALMY

Results are given in words; binding and its absence hold for the method and conditions named. A result given as binding can be weak or reduced; the word gives no strength. Tags and fused reporters may be left off the sequences shown. Each block holds one binder with its values, some of them ahead of it.
